The list shows a part of the results.
Compound: CC1=C(C=C(C=C1)NC(=O)C2=CC(=CC=C2)C(C)(C)C#N)NC3=CC4=C(C=C3)N=CN(C4=O)C
Experiment: log2 fold change, soluble protein after heating vs DMSO (PISA); higher = thermal stabilisation; K562 lysate, 10 uM; active = over 0.2 and 3.5 SD of the protein, either way, in both replicates (recomputed)
How it was run: (§1)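 Thermal stability, expressed as log-two fold change relative to solvent controls, is given from duplicates. Crude K562 extract in PBS pH 7.4 with 1 mM MgCl2, at 1 mg/mL protein, was treated with 10 μM compound for 30 min and heated in aliquots for 3 min across 48°C-58°C. After pooling, adjustment to 0.5% NP-40 at 4°C and centrifugation at 21,000xg for 90 min, supernatant protein was measured by TMTpro 16plex LC-MS/MS with channel sums equalised.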

Amino acid sequences for entries named in this document (tags omitted). A change or cut given only in a name is not applied to a line headed by its entry.
UniProt Q8NCS4: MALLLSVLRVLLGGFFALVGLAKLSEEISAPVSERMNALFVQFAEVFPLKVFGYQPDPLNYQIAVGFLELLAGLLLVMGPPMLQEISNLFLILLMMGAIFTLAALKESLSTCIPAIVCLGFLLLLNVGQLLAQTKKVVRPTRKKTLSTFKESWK
UniProt P06753, whole entry, looked up: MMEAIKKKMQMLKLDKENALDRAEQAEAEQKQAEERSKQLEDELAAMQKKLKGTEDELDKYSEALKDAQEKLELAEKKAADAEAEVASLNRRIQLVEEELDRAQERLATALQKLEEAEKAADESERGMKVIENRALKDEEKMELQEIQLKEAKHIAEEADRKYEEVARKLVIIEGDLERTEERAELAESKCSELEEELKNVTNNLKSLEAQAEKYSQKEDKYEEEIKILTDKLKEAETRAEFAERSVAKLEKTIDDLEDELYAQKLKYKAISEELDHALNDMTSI
UniProt Q9NS69: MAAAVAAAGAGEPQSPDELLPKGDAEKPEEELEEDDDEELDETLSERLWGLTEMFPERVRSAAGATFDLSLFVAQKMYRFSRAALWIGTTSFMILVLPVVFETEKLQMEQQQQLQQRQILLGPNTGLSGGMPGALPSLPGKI
UniProt P62995: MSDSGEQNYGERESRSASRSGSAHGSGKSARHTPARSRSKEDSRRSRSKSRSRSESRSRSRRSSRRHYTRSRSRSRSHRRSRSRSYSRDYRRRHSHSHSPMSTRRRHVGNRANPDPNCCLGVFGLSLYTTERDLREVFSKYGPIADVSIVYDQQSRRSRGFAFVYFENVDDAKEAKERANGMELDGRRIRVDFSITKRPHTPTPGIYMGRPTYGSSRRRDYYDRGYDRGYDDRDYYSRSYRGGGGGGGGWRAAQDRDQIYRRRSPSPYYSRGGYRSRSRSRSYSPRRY
UniProt Q9P0T7: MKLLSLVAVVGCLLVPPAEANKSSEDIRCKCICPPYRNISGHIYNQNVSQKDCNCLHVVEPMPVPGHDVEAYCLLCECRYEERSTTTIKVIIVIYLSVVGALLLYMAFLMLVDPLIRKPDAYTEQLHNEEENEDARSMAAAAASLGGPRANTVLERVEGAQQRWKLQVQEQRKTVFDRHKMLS
UniProt Q96HH6: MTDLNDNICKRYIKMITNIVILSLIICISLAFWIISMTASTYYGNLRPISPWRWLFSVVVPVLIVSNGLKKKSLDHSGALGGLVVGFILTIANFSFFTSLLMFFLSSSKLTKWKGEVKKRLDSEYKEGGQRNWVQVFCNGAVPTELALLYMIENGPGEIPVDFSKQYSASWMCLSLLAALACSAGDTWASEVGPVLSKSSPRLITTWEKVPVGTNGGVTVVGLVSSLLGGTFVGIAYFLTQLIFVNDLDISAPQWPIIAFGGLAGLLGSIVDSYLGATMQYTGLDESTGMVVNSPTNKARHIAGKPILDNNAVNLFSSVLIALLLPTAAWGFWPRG
UniProt Q96A57: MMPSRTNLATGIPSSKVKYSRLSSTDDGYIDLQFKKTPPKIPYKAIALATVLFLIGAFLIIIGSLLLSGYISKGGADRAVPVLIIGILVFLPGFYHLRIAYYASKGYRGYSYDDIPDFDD
UniProt Q9NWD8: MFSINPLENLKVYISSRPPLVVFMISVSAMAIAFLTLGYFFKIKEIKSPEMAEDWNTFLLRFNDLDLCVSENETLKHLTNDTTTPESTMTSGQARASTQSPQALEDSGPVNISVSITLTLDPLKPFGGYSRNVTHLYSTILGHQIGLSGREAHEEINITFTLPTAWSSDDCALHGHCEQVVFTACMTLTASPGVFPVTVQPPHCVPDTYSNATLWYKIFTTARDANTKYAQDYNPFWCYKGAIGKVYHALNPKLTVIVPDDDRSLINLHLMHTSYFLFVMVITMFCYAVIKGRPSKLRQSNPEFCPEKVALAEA
UniProt Q13595: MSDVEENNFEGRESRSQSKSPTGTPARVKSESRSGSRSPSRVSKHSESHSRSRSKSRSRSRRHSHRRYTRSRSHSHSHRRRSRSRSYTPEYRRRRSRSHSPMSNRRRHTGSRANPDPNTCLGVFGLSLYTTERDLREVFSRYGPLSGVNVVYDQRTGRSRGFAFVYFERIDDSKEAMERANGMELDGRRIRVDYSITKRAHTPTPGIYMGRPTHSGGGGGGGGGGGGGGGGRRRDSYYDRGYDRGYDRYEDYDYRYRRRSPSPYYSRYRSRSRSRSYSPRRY
UniProt P02585, whole entry, looked up: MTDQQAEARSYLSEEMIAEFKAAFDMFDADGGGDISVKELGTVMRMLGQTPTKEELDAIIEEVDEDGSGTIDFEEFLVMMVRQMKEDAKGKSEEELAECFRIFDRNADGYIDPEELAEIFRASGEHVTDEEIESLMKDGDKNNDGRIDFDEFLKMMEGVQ
UniProt O95271: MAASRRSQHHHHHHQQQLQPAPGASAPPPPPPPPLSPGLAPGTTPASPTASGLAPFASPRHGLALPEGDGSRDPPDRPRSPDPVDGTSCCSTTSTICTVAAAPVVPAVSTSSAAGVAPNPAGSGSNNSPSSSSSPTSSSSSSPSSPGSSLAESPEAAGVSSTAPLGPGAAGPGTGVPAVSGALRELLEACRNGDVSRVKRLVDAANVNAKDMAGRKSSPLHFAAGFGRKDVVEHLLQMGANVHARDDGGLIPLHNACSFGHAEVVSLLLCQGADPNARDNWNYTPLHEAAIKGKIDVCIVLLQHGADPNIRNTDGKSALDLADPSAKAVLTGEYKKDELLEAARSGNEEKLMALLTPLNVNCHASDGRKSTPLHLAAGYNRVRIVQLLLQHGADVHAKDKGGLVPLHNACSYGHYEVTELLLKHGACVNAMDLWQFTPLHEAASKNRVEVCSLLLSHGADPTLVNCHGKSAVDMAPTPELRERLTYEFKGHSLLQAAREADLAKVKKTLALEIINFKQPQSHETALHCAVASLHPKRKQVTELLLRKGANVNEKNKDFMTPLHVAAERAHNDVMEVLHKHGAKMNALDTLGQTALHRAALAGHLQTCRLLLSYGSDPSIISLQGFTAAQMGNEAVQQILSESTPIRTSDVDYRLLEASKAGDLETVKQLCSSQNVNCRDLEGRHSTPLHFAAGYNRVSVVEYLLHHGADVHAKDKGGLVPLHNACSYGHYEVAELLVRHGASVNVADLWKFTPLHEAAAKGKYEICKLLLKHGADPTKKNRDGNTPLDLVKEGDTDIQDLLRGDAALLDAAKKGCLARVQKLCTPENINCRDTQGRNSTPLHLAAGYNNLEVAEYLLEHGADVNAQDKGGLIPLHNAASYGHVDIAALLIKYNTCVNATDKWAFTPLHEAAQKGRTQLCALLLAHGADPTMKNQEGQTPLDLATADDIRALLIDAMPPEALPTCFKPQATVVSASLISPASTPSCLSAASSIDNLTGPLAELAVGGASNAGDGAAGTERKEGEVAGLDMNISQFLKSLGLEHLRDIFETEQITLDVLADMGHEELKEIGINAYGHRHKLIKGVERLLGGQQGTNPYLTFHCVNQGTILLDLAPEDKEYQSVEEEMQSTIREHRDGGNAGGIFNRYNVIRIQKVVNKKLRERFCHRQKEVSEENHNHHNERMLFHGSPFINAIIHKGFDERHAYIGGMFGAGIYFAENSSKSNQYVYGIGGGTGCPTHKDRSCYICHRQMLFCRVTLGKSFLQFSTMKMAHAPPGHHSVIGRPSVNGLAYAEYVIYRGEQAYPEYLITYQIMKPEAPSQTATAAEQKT
UniProt Q9BVT8: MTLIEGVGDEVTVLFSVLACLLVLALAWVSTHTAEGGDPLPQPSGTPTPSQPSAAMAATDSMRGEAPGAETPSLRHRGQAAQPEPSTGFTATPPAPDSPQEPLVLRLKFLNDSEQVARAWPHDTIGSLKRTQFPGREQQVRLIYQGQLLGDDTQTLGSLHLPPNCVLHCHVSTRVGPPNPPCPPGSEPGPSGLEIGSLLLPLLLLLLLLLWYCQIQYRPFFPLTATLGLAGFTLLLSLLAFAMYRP
UniProt Q9NZR1: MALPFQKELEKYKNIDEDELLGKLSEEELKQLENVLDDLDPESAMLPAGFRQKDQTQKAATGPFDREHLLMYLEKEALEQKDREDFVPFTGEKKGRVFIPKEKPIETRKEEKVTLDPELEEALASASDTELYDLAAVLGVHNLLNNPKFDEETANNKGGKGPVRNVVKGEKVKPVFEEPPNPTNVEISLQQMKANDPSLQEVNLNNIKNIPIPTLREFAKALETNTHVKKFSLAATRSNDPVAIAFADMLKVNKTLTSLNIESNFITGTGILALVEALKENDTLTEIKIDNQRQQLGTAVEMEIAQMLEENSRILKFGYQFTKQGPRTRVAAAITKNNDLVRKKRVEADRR
UniProt Q8NDV7: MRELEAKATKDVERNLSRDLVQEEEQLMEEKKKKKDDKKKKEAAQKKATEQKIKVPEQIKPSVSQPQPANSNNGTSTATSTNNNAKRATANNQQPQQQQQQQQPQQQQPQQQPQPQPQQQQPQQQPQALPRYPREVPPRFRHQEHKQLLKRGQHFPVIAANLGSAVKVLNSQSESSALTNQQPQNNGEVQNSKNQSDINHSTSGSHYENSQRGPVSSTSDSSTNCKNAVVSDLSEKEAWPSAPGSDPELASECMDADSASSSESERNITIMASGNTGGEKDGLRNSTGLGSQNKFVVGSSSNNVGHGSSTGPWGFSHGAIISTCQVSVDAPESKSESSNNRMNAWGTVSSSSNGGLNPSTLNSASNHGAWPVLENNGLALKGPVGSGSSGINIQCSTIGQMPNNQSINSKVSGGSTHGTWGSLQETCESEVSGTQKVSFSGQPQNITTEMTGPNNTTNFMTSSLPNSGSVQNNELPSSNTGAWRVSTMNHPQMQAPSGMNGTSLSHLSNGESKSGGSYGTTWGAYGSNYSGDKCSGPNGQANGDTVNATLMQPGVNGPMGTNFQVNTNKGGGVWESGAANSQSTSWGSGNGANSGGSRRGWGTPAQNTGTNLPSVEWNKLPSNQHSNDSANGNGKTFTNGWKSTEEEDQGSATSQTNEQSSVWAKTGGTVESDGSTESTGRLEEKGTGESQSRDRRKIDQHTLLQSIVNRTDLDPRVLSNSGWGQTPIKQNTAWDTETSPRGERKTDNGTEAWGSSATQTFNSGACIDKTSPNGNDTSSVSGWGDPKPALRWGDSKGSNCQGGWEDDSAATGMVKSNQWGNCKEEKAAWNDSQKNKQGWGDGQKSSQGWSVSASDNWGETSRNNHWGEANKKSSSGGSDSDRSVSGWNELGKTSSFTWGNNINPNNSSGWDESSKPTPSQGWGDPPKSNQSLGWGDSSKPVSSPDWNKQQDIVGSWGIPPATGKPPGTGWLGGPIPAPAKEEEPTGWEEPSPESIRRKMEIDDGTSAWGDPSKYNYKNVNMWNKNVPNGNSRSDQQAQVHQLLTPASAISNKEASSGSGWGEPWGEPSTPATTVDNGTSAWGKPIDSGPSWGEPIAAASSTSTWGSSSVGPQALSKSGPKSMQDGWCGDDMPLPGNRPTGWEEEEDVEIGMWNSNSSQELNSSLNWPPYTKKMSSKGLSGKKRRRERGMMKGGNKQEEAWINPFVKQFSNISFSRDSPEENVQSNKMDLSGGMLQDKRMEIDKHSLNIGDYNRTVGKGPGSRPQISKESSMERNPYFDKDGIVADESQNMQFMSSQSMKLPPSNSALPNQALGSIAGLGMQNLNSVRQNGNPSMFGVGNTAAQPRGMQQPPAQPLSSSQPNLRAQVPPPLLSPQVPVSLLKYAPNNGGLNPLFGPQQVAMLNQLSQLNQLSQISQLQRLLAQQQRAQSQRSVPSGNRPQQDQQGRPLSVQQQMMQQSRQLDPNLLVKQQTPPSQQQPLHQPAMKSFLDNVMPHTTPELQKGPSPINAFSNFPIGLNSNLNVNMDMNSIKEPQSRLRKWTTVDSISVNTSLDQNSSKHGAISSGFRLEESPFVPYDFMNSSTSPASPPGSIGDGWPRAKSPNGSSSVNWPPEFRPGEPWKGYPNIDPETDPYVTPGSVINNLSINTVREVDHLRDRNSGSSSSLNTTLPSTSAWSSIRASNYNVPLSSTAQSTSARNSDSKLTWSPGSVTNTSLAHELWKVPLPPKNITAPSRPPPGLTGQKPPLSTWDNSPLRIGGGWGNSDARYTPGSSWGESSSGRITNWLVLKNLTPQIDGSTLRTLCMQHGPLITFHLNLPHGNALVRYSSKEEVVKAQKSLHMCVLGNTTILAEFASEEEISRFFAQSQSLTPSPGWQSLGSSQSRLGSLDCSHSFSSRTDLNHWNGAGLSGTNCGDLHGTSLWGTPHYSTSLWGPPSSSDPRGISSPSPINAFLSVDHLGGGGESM
UniProt Q8NFZ5: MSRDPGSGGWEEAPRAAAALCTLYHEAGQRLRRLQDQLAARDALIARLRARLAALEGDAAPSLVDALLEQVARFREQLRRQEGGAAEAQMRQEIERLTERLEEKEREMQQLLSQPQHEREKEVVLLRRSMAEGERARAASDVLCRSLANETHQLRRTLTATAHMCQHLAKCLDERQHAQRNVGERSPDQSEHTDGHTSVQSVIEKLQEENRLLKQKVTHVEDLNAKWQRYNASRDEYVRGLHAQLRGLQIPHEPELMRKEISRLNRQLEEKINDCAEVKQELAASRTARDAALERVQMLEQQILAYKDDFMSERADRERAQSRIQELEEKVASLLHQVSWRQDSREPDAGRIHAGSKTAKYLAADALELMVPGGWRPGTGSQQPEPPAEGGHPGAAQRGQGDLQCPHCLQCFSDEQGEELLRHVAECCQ

Target	log2 fold change
TMX4 (UniProt Q9H1E5)	inactive: 0.036
TMEM35B (UniProt Q8NCS4)	inactive: 0.109
TPM3 isoform 3 (UniProt P06753)	inactive: -0.157
TOMM22 (UniProt Q9NS69)	inactive: 0.086

Compound: CC1=C(C=C(C=C1)NC(=O)C2=CC(=CC=C2)N(C)C)NC(=O)C3=CC=C(C=C3)O
Experiment: as above
How it was run: as §1

Target	log2 fold change
TRA2B (UniProt P62995)	inactive: 0.043
TMEM9 (UniProt Q9P0T7)	inactive: 0.028
TNIP1 (UniProt Q15025)	inactive: 0.036
TP53RK (UniProt Q96S44)	inactive: -0.02
TOPAZ1 (UniProt Q8N9V7)	inactive: -0.562
TPCN1 isoform 3 (UniProt Q9ULQ1)	inactive: -0.009
TMEM19 (UniProt Q96HH6)	inactive: 0.037
TPM1 (UniProt H7BYY1)	inactive: 0.039
TPK1 (UniProt Q9H3S4)	inactive: -0.04
TMEM230 isoform 2 (UniProt Q96A57)	inactive: 0.04
TPM3 (UniProt P06753)	inactive: -0.016
TMUB2 (UniProt Q71RG4)	inactive: 0.05
TMEM248 (UniProt Q9NWD8)	inactive: -0.026
TMPPE (UniProt Q6ZT21)	inactive: -0.008
TRA2A (UniProt Q13595)	inactive: 0.019
TNNC2 (UniProt P02585)	inactive: 0.003
TNKS (UniProt O95271)	inactive: 0.006
TMEM94 isoform 2 (UniProt Q12767)	inactive: -0.013
TMUB1 (UniProt Q9BVT8)	inactive: 0.043
TMOD2 (UniProt Q9NZR1)	inactive: -0.009
TPRG1L (UniProt Q5T0D9)	inactive: -0.028
TMX4 (UniProt Q9H1E5)	inactive: -0.046
TMEM35B (UniProt Q8NCS4)	inactive: -0.056
TPM3 isoform 3 (UniProt P06753)	inactive: 0.012
TOMM22 (UniProt Q9NS69)	inactive: -0.014

Compound: CC1=CC=C(C=C1)SC2=C3C=C(SC3=CN=C2)C(=O)N
Experiment: as above
How it was run: as §1

Target	log2 fold change
TRA2B (UniProt P62995)	inactive: 0
TMEM9 (UniProt Q9P0T7)	inactive: -0.08
TNIP1 (UniProt Q15025)	inactive: 0.085
TP53RK (UniProt Q96S44)	inactive: -0.071
TOPAZ1 (UniProt Q8N9V7)	inactive: 0.079
TPCN1 isoform 3 (UniProt Q9ULQ1)	inactive: 0.027
TMEM19 (UniProt Q96HH6)	inactive: 0.188
TNRC6A (UniProt Q8NDV7)	inactive: -0.026
TPM1 (UniProt H7BYY1)	inactive: -0.034
TPK1 (UniProt Q9H3S4)	inactive: 0.014
TMEM8A (UniProt Q9HCN3)	inactive: 0.035
TMEM230 isoform 2 (UniProt Q96A57)	inactive: -0.053
TPM3 (UniProt P06753)	inactive: -0.007
TMUB2 (UniProt Q71RG4)	inactive: 0.058
TOR1AIP1 (UniProt Q5JTV8)	inactive: -0.083
TOM1 (UniProt O60784)	inactive: -0.028
TMPPE (UniProt Q6ZT21)	inactive: 0.04
TRA2A (UniProt Q13595)	inactive: -0.007
TNIP2 (UniProt Q8NFZ5)	inactive: 0.078
TNNC2 (UniProt P02585)	inactive: 0.016
TNKS (UniProt O95271)	inactive: 0.124
TNIK (UniProt C9J338)	inactive: -0.114
TMEM94 isoform 2 (UniProt Q12767)	inactive: -0.094
TMUB1 (UniProt Q9BVT8)	inactive: 0.105
TMOD2 (UniProt Q9NZR1)	inactive: 0.02
TPRG1L (UniProt Q5T0D9)	inactive: 0.019
TMEM35B (UniProt Q8NCS4)	inactive: 0.153
TPM3 isoform 3 (UniProt P06753)	inactive: -0.032
TOMM22 (UniProt Q9NS69)	inactive: 0.019
